Test results taken from US20120021973A1 (priority 2008, published 2012).

Assay: general procedure: Fmoc solid-phase peptide synthesis; Fmoc-Rink amide AM resin (0.71 mmol/g, Novabiochem); HBTU/HOBt/DIPEA
Conditions: TFA salt; for isolated mass / isolated yield: whole synthesis
[1] = scale of the general procedure 0.25 mmol or 1.0 mmol

Substance | isolated mass (scale 0.25 mmol) | isolated mass | isolated yield [1] | further results
(2-{2-[2-(2-{2-[16-(tetrazol-5-yl)hexadecanoylamino]ethoxy}ethoxy)acetylamino]ethoxy}ethoxy)acetyl-Gly-D-Ser-Gln-Ser-Ser-Gln-His-Lys-Nle-c[Glu-Hyp-D-Phe-Arg-Trp-Lys]-NH2 | 50 mg | – | – | isolated yield (scale 0.25 mmol): 8%
(2-{2-[16-(Tetrazol-5-yl)hexadecanoylamino]ethoxy}ethoxy)acetyl-Gly-Ser-Gln-His-Lys(BCMA)-Nle-c[Glu-Hyp-D-Phe-Arg-Trp-Lys]-NH2 | 72 mg | – | – | isolated yield (nitrogen-specific HPLC detector, scale 0.25 mmol): 13%
(2-{2-[16-(Tetrazol-5-yl)hexadecanoylamino]ethoxy}ethoxy)acetyl-Gly-Ser-Gln-Ser-Dap(BCMA)-Nle-c[Glu-Hyp-D-Phe-Arg-Trp-Lys]-NH2 | – | 56 mg | 11% | –
(2-{2-[16-(Tetrazol-5-yl)hexadecanoylamino]ethoxy}ethoxy)acetyl-Gly-Ser-Gln-Ser-Lys(biscarboxymethyl)-Nle-c[Glu-Hyp-D-Phe-Arg-Trp-Lys]-NH2 | – | 45 mg | 9% | –
[2-{2-[16-(tetrazol-5-yl)hexadecanoylamino]ethoxy}ethoxy]acetyl-Gly-Ser-Gln-His-β-Dap-Nle-c[Glu-Hyp-D-Phe-Arg-Trp-Lys]-NH2 | – | – | – | step yield (late stage modification step): 13%
